Source: ChEMBL document CHEMBL3988442, “University of Dundee, Small-Polar-MMV Screening Library” (2021).

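Assay of Toxoplasma gondii numbers, read through their beta-galactosidase reporter with a colour substrate. Tested at 50 µM. Higher reads as fewer parasites (inferred from which compounds were picked for retests). Size under these conditions: about 18,000 compounds, about 170 of them at 50% or above in at least one test.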

Each number is a percent effect as filed. How 0% and 100% were set is not recorded. Most values in the screen are low, and negative values occur. This is an unselected part of the compounds tested.

SMILES,Percent Effect
Cn1ncnc1COc1ccc(C#N)c(Cl)c1,2.801%
c1ccc(-c2noc(CN3CCCC3)n2)cc1,-7.524%
CS(=O)(=O)c1ccccc1C(=O)Nc1ccccc1,-3.751%
CC(=O)N1CCN(C(=O)CCc2cc(Cl)cs2)CC1,-24.76%
CCN(CC(N)=O)Cc1ccc(C)s1,-5.1%
Cn1cc(CNCC2COc3ccccc3O2)cn1 (centres unmarked),-1.103%
COc1ccc(Cn2[nH]ccc2=N)cc1,-8.545%
OC[C@@H]1COCCN1,24.45%
CCCn1cc(NC(=O)CS(=O)(=O)CCC)cn1,2.042%
CC1CCN(C(=O)COc2ncccn2)CC1,-1.791%
CC(=O)NC(C(=O)N(C)Cc1cccs1)C(C)C (centres unmarked),4.166%
Cc1nc(CN(C)C(=O)[C@H]2CCC[C@H](O)C2)no1,-9.401%
CNCCCNC(=O)CCc1ccc(F)cc1,-10.84%
Cc1nn(C(C)C)c(C)c1NC(=O)N1CCC[C@H]1CO,-12.23%
CCOCC(=O)N1C[C@H](CO)C[C@H](CN2CCCC2)C1,7.943%
CNC(=O)c1cccnc1N1CCSCC1,-6.234%
Cc1cc(NC(=O)C2CCCO2)n(C)n1 (centres unmarked),1.502%
CNCC(=O)NC1CC(=O)N(c2ccccc2OC)C1 (centres unmarked),4.102%
O=C(NCCOc1ccccc1)C1CNCCO1 (centres unmarked),4.866%
CC(Oc1ccc(Cl)cc1)C(=O)N(C)C (centres unmarked),-0.3053%
NC(=O)C1CCN(C(=O)CCc2ccc(Cl)cc2Cl)C1 (centres unmarked),7.6%
C=C(C)CNC(=O)NCCc1cnn(C)c1,-2.751%
CCN(CC(N)=O)c1ccc(C(F)(F)F)cn1,26.34%
NC(=O)C(Sc1nnc[nH]1)c1ccc(Br)cc1 (centres unmarked),-12.74%
CC(C)N1CCN(CCCn2ccnc2C#N)CC1,7.418%
Cc1nc(C(C)NC(=O)c2ccc3cc[nH]c3c2)n[nH]1 (centres unmarked),18.36%
O=C(NC1CCN(c2ccccc2)CC1)c1cnc[nH]1,-3.12%
CCC(Nc1cccc(OC)c1)C(=O)NCCCN (centres unmarked),-2.962%
CNc1cccc2cccnc12,-1.4%
CC(C)CNc1ccc2nncn2n1,-21.67%
COCCC(=O)NCC(O)c1c(Cl)cccc1Cl (centres unmarked),-4.726%
CC1(C)C[C@@H]1C(=O)Nc1cnccc1N1CCOCC1,-1.672%
CCc1ncc(C2NCCc3[nH]cnc32)cn1 (centres unmarked),-24.09%
O=C(c1cscn1)N1CCOC(C(F)F)C1 (centres unmarked),12.03%
Cc1cc(C(=O)Nc2ccnc(C)c2Cl)cc(O)n1,12.01%
CNC(=O)c1cc(S(=O)(=O)N2CCCC(C)C2)cs1 (centres unmarked),0.7677%
Cc1ccc2[nH]c(C(C)N)nc2c1 (centres unmarked),3.344%
O=C(Cc1ccc(O)cc1Cl)N1CCCC1CO (centres unmarked),-2.704%
Cc1cc(-n2cccn2)ccc1CO,-7.574%
CC(=O)N(C)C1CCNCC1,-2.944%
CC(C)NC(=O)NC1CCNC1 (centres unmarked),-0.1926%
O=C(Cc1ccc2c(c1)OCO2)N[C@@H]1CCOC[C@H]1O,-0.3696%
CC(C#N)CN(C)S(=O)(=O)N1CCCN(CCO)CC1 (centres unmarked),5.569%
Cn1cc(I)c(=O)n(Cc2ccccn2)c1=O,2.455%
CNC(=O)c1cccc(NCc2nc(C)cs2)n1,-1.003%
c1cnn(CCNCc2ccc3c(c2)CCO3)c1,23.23%
CN(C)c1ccc(N)nc1,2.816%
NCCCc1cccc(O)c1,-24.93%
N#Cc1cccc([C@H]2C[C@H](N)C2)c1,-2.725%
CCOc1cccc(OCCN2CCC(O)(CO)C2)c1 (centres unmarked),8.105%
COCCN1C(=O)C[C@@H](CN)[C@@H]1c1cnn(C(C)C)c1,-5.356%
CCNc1ncc(C(=O)N(C)Cc2ccsc2)cn1,1.728%
O=C(Nc1cccc(OCC(F)F)n1)NC1CC1,11.62%
CCOC(=O)CN(C)C(=O)c1ccc(=O)n(C)n1,-9.36%
CNCC(=O)NCC1CCN(c2cnn(C)c(=O)c2)C1 (centres unmarked),13.47%
N#Cc1ccc(Sc2nnc(N3CCCC3)s2)nc1,-25.83%
CSCCC(O)C(=O)N(C)Cc1ccncc1C (centres unmarked),-7.535%
CC(C(=O)NC(N)=O)N(C)Cc1ccc(F)cc1F (centres unmarked),1.986%
CC(C)c1nnc(CN2CC[C@](C)(O)[C@H](C)C2)o1,-25.65%
Cc1cc(C(=O)NC(C)C)[nH]n1,-10.67%
COC(=O)N1CCCC(C(=O)NCc2c[nH]nc2C)C1 (centres unmarked),3.184%
CC1(NC(=O)c2ccc(F)c(F)c2)CCS(=O)(=O)C1 (centres unmarked),8.201%
CCN1CC(C(=O)NCCc2nccs2)CC1=O (centres unmarked),3.96%

The last 4 entries again:

With Cc1cc(C(=O)NC(C)C)[nH]n1 the screen gave -10.67%.
With COC(=O)N1CCCC(C(=O)NCc2c[nH]nc2C)C1 (centres unmarked) the screen gave 3.184%.
With CC1(NC(=O)c2ccc(F)c(F)c2)CCS(=O)(=O)C1 (centres unmarked) the screen gave 8.201%.
With CCN1CC(C(=O)NCCc2nccs2)CC1=O (centres unmarked) the screen gave 3.96%.